The target in assay [1] is T1, RelB (mouse (endogenous in MEF)) (UniProt Q04863).
T1 sequence: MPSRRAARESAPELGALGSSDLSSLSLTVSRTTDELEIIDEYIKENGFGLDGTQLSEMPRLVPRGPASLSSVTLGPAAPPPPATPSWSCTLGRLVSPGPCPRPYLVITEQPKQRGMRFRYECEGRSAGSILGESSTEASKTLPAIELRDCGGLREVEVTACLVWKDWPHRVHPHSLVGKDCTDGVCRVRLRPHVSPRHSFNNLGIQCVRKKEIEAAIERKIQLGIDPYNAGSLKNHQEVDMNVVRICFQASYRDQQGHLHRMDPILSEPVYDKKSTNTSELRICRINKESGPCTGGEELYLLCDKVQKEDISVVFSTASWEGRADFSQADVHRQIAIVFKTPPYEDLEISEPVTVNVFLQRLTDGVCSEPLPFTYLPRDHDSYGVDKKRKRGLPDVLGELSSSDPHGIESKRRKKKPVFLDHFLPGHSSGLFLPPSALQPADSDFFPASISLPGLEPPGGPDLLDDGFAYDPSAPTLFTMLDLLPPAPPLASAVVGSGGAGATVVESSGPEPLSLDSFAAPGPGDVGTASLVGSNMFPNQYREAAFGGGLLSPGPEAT
Kind of assay: co-IP; IP with RelB or AhRR antibody from MEF (wt and AhRR Tg) treated with 1 nM TCDD or DMSO for 90 min; Western blot detection; rabbit IgG as negative control.

Chains of the proteins cited; added tags and fusions are not shown.
UniProt P53762: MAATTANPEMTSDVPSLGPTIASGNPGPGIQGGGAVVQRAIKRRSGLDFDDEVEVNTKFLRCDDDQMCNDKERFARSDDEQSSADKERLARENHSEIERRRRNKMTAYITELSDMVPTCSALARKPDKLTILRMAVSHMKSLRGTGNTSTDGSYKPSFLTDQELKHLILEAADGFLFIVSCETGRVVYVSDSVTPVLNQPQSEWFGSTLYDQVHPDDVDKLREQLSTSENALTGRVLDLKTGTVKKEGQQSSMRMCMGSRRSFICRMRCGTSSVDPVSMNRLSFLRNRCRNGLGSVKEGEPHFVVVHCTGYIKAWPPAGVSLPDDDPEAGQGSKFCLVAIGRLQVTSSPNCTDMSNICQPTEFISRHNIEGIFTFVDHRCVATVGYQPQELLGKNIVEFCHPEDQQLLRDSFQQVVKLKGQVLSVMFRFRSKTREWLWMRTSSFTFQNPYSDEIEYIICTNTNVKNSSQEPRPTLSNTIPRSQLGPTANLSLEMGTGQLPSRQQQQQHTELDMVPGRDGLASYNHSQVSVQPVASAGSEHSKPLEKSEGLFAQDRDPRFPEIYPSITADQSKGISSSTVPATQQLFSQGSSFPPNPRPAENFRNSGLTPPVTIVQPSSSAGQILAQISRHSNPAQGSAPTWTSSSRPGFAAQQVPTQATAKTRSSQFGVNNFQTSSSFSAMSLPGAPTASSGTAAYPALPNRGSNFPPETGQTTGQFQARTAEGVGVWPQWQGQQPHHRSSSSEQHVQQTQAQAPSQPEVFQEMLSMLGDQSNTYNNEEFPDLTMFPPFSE

Assay [2] deals with T2, aryl hydrocarbon receptor repressor (mouse (endogenous in MEF)) (UniProt Q3U1U7).
T2 sequence: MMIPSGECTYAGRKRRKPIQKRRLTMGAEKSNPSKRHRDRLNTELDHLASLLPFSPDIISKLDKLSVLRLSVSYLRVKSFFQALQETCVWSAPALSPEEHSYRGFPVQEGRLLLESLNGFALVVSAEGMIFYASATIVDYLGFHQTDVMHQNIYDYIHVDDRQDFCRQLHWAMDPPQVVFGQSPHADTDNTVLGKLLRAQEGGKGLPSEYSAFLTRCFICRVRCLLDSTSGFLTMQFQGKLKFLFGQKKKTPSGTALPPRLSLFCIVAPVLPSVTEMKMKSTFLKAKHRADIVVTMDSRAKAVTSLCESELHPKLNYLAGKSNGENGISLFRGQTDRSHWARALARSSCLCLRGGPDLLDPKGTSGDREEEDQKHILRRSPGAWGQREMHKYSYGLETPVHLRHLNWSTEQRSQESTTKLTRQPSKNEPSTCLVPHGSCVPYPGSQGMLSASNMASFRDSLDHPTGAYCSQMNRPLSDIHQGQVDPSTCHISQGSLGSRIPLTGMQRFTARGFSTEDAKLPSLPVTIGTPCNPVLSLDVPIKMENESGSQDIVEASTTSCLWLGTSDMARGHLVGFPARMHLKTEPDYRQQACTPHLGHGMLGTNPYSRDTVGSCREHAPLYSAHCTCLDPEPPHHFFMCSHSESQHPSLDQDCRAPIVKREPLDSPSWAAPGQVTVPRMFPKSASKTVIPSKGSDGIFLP
Described as above.

Here are results for two molecules from publication PMC6563059.

Results are given in words; binding and its absence hold for the method and conditions named. In cells and extracts the contact can be indirect. Some entries that bind do so weakly or less than the wild type.

On to “AhR nuclear translocator (from UniProt P53762 1-791)”, for which the binding entry in assay [1] and in assay [2] was “binds” throughout.

B1: RelB (protein, UniProt Q04863 1-558)
chain: T1 sequence
Take B1: the binding entry in assay [2] was “binds”.
